Data as given in PubChem BioAssay AID1259405 (NCATS, 2018).
In all, the deposit lists about 50,000 reagents; shown is an unselected part. About 4,000 of all reagents (8%) count as active. 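Mouse siRNA library applied to hamster cells; one well for each siRNA.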 The numbers tell different reagents against one gene apart.

- Aim: 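Silenced genes that increase secreted GFP made by CHO cells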 (primary screen)
- Cell system: Chinese hamster CHO-K1 ovary cells with stable secreted eGFP expression
- Reagent: single siRNA against mouse genes, 0.8 pmol siRNA per well (2 µl of 400 nM stock)
- Duration: 3 days
- Measurement: 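Percent of the per-plate non-targeting control median for intracellular GFP per well by laser scanning cytometry and for cell viability by ATP luminescence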
- Reading the numbers: GFP, % of control: higher = more GFP per well, higher productivity; viability (ATP), % of control: higher = more viable cells (more ATP)
- Hit rule: 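Called active when intracellular GFP, relative to negative control, is at or above 120%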

Sf3b2 (splicing factor 3b, subunit 2) #1 — GFP, % of control: 117; viability (ATP), % of control: 45.3; activity call: inactive
Sf3b2 (splicing factor 3b, subunit 2) #2 — GFP, % of control: 174; viability (ATP), % of control: 27.3; activity call: active
Sf3b2 (splicing factor 3b, subunit 2) #3 — GFP, % of control: 50.7; viability (ATP), % of control: 46.6; activity call: inactive
Kdm5d (lysine demethylase 5D) #1 — GFP, % of control: 68.1; viability (ATP), % of control: 105; activity call: inactive
Kdm5d (lysine demethylase 5D) #2 — GFP, % of control: 91.7; viability (ATP), % of control: 86.8; activity call: inactive
Kdm5d (lysine demethylase 5D) #3 — GFP, % of control: 88.9; viability (ATP), % of control: 94.3; activity call: inactive
Galnt2 (polypeptide N-acetylgalactosaminyltransferase 2) #1 — GFP, % of control: 82.6; viability (ATP), % of control: 89.5; activity call: inactive
Galnt2 (polypeptide N-acetylgalactosaminyltransferase 2) #2 — GFP, % of control: 93; viability (ATP), % of control: 135; activity call: inactive
Galnt2 (polypeptide N-acetylgalactosaminyltransferase 2) #3 — GFP, % of control: 95.6; viability (ATP), % of control: 132; activity call: inactive
Ppcdc (phosphopantothenoylcysteine decarboxylase) #1 — GFP, % of control: 93.8; viability (ATP), % of control: 67.4; activity call: inactive
Ppcdc (phosphopantothenoylcysteine decarboxylase) #2 — GFP, % of control: 63.7; viability (ATP), % of control: 95.2; activity call: inactive
Ppcdc (phosphopantothenoylcysteine decarboxylase) #3 — GFP, % of control: 85; viability (ATP), % of control: 104; activity call: inactive
Mrpl20 (mitochondrial ribosomal protein L20) #1 — GFP, % of control: 41.7; viability (ATP), % of control: 56.3; activity call: inactive
Mrpl20 (mitochondrial ribosomal protein L20) #2 — GFP, % of control: 95.9; viability (ATP), % of control: 50.7; activity call: inactive
Mrpl20 (mitochondrial ribosomal protein L20) #3 — GFP, % of control: 88.6; viability (ATP), % of control: 75.9; activity call: inactive
Fdxacb1 (ferredoxin-fold anticodon binding domain containing 1) #1 — GFP, % of control: 44.9; viability (ATP), % of control: 68.6; activity call: inactive
Fdxacb1 (ferredoxin-fold anticodon binding domain containing 1) #2 — GFP, % of control: 68; viability (ATP), % of control: 85.2; activity call: inactive
Fdxacb1 (ferredoxin-fold anticodon binding domain containing 1) #3 — GFP, % of control: 107; viability (ATP), % of control: 55.8; activity call: inactive
Nfatc4 #1 — GFP, % of control: 72.3; viability (ATP), % of control: 64.5; activity call: inactive
Nfatc4 #2 — GFP, % of control: 81.4; viability (ATP), % of control: 96; activity call: inactive
Nfatc4 #3 — GFP, % of control: 90.5; viability (ATP), % of control: 129; activity call: inactive
Bcor (BCL6 interacting corepressor) #1 — GFP, % of control: 29.4; viability (ATP), % of control: 52.3; activity call: inactive
Bcor (BCL6 interacting corepressor) #2 — GFP, % of control: 36.6; viability (ATP), % of control: 65.2; activity call: inactive
Bcor (BCL6 interacting corepressor) #3 — GFP, % of control: 121; viability (ATP), % of control: 139; activity call: active
Rabgap1l (RAB GTPase activating protein 1-like) #1 — GFP, % of control: 81.2; viability (ATP), % of control: 53.2; activity call: inactive
Rabgap1l (RAB GTPase activating protein 1-like) #2 — GFP, % of control: 66.7; viability (ATP), % of control: 62.8; activity call: inactive
Rabgap1l (RAB GTPase activating protein 1-like) #3 — GFP, % of control: 75.5; viability (ATP), % of control: 67.7; activity call: inactive
Atf3 (activating transcription factor 3) #1 — GFP, % of control: 53.9; viability (ATP), % of control: 73.9; activity call: inactive
Atf3 (activating transcription factor 3) #2 — GFP, % of control: 98.6; viability (ATP), % of control: 69.7; activity call: inactive
Atf3 (activating transcription factor 3) #3 — GFP, % of control: 84.7; viability (ATP), % of control: 88.1; activity call: inactive
Nr1h4 (nuclear receptor subfamily 1, group H, member 4) #1 — GFP, % of control: 43.6; viability (ATP), % of control: 55.7; activity call: inactive
Nr1h4 (nuclear receptor subfamily 1, group H, member 4) #2 — GFP, % of control: 77.9; viability (ATP), % of control: 87.2; activity call: inactive
Fcho1 (FCH domain only 1) #1 — GFP, % of control: 44.4; viability (ATP), % of control: 67; activity call: inactive
Fcho1 (FCH domain only 1) #2 — GFP, % of control: 76.7; viability (ATP), % of control: 58.4; activity call: inactive
Fcho1 (FCH domain only 1) #3 — GFP, % of control: 52.3; viability (ATP), % of control: 74.3; activity call: inactive
Stmnd1 (stathmin domain containing 1) #1 — GFP, % of control: 51; viability (ATP), % of control: 88.3; activity call: inactive
Stmnd1 (stathmin domain containing 1) #2 — GFP, % of control: 51.4; viability (ATP), % of control: 56; activity call: inactive
Stmnd1 (stathmin domain containing 1) #3 — GFP, % of control: 78; viability (ATP), % of control: 71.3; activity call: inactive
Ccnt1 (cyclin T1) #1 — GFP, % of control: 63.4; viability (ATP), % of control: 59.2; activity call: inactive
Ccnt1 (cyclin T1) #2 — GFP, % of control: 108; viability (ATP), % of control: 112; activity call: inactive

Part of the list above, reformatted.
{"gene symbol":"Ppcdc (phosphopantothenoylcysteine decarboxylase)","siRNA no.":3,"GFP, % of control":85,"viability (ATP), % of control":104,"activity call":"inactive"}
{"gene symbol":"Mrpl20 (mitochondrial ribosomal protein L20)","siRNA no.":1,"GFP, % of control":41.7,"viability (ATP), % of control":56.3,"activity call":"inactive"}
{"gene symbol":"Mrpl20 (mitochondrial ribosomal protein L20)","siRNA no.":2,"GFP, % of control":95.9,"viability (ATP), % of control":50.7,"activity call":"inactive"}
